US20060188913A1, “Methods and products for enhancing immune responses using imidazoquinoline compounds” (University of Iowa Research Foundation, priority 2001, published 2006)
“Also recorded” adds a separate entry of the source. At least one structure is not confirmed: it was looked up by name or label, or the drawing left a doubt.

Legend:
[1] = tested on: B cell; test: B cell activation with or without chloroquine; format: cell-based, human; details: not shown
[2] = target: T1, hTLR9 (Homo sapiens, UniProt Q9NR96, H530R/Q688R); test: NF-kappa B luciferase activation in stably transfected 293-TLR9-Luc cells; format: cell-based
T1 construct: 293-TLR9-Luc cells contain a genomic copy of the hTLR9 open reading frame and the NF-kappa B-luciferase cassette; expressed in transfected cells; host or cells: 293-TLR9-Luc (stably transfected human embryo kidney 293 cells)
T1 sequence (Q9NR96 26-1032 H530R/Q688R): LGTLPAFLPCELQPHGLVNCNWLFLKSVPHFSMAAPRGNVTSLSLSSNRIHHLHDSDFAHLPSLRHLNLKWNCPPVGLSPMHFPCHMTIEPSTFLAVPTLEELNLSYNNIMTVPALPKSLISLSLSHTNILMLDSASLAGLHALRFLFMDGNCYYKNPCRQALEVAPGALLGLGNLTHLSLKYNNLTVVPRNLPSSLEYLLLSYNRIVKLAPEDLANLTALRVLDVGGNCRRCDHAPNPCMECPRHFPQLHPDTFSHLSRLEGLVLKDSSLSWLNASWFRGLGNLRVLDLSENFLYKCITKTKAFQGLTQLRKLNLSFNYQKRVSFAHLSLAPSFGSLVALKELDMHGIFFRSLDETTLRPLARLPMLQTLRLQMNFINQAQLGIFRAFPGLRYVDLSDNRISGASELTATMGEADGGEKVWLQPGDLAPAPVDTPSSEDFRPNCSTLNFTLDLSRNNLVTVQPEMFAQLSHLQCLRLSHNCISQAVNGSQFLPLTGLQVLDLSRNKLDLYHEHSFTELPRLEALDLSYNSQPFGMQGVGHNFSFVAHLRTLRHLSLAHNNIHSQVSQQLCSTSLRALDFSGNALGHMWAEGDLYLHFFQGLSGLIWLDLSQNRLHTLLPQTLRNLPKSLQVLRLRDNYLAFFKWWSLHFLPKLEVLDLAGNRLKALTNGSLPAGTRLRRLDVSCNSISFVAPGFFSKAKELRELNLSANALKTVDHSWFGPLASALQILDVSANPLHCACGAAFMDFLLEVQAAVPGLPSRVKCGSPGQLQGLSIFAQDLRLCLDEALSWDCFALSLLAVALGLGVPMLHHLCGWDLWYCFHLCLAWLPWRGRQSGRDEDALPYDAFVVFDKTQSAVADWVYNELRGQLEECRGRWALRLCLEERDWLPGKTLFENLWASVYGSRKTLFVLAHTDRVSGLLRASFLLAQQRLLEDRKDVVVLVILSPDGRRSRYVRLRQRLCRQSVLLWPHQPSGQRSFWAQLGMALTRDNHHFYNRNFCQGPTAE
Experimental: Cells used for transfections were 293T (human embryo kidney cells, T-antigen transfected) or 293-TLR9-Luc (stable transfectants, human embryo kidney cells expressing the human TLR9 receptor and containing a genomic NF-kappa B-luciferase cassette).
Stimulation was performed 24 h after transfection. Medium of the cells was reduced to 1 ml (without medium change) and cells were stimulated with indicated amounts of R-848, LPS, ODN 8954, 2006 and IL-1 beta for 16 h.
Cell extracts were prepared by lysing the cells in 100 μl reporter lysis buffer using the freeze-thaw method. NF-kappa B stimulation was measured through luciferase activity (Promega). All data were normalized for beta-gal expression. Stimulation indices were calculated in reference to luciferase activity of medium without addition of ODN.
Since R-848 has immune modulatory properties, this experiment examined whether R-848-mediated immune responses are hTLR9-dependent. Cells stably transfected with hTLR9 and a NF-kappa B reporter construct (293-TLR-Luc cells) were incubated for 16 hours with IL-1, CpG ODN 2006, control non-CpG ODN 1982 (5′ […] 3′, SEQ ID NO:3), or increasing amounts of R-848. NF-kappa B activation was determined by measurement of luciferase activity. Activity is given in x-fold activation compared to luciferase activity in medium control.

[3] = target: T2, hTLR6 (Homo sapiens, UniProt Q9Y2C9); test: NF-kappa B luciferase activation in cells transfected with hTLR6; format: cell-based
T2 construct: expressed in transfected cells; host or cells: 293T and/or 293-TLR9-Luc cells ('all transfection experiments')
T2 sequence (Q9Y2C9 32-796): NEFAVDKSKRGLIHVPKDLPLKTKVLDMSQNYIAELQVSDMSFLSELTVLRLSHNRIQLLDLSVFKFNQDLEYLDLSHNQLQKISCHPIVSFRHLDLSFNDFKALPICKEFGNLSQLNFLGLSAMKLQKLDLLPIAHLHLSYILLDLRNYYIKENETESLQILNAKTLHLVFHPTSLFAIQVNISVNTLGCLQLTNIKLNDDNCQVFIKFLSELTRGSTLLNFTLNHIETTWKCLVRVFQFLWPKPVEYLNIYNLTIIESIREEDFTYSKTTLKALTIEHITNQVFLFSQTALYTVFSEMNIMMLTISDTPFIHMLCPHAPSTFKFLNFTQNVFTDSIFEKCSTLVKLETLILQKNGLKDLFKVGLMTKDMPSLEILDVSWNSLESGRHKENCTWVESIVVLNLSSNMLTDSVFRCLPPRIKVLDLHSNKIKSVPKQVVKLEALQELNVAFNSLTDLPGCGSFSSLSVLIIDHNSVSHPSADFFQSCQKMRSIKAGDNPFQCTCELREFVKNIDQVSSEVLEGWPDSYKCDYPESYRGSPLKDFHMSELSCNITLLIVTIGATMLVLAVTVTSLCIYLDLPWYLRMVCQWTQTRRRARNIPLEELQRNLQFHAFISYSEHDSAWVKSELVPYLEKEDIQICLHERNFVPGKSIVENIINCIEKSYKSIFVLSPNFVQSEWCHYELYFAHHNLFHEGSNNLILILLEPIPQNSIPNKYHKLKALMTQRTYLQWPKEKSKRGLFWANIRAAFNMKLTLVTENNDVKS

[4] = tested on: human PBMC; test: IFN-alpha secretion by human PBMC (ELISA); format: cell-based; details: 48 hours, R-848 0.01-1.0 μg/ml versus CpG ODN 2006 0.2-3.0 μg/ml, FIG. 5A

CCOCc1nc2c(N)nc3ccccc3c2n1CC(C)(C)O [R-848, Resiquimod]
inhibition of B cell activation by chloroquine [1]: A similar result was also obtained
NF-kappa B activation (luciferase activity) ([2]; 293-TLR-Luc cells, 16 hours, R-848 at 5 μg/ml): did not yield any NF-kappa B activation
hTLR9-mediated NF-kappa B activation (in words) ([2]; cells expressing hTLR9 alone, 293-TLR-Luc with pcDNA (empty vector)): appeared not to activate any NF-kappa B signaling; also recorded: did not react; also recorded: but not by R-848
NF-kappa B activation through hTLR6 (in words) [3]: neither of these showed any response to R-848
IFN-alpha induction [4]: induced higher amounts of IFN-alpha upon incubation of human PBMC than type B CpG ODN 2006
